Test results as given in US9849146B2, “Inhibition of nonsense mediated mRNA decay by drugs that prevent hypusination of eukaryotic initiation factor 5A” (RUTGERS, THE STATE UNIVERSITY OF NEW JERSEY, priority 2009, dated 2017).
“Also recorded” adds a separate entry of the source. For some of these results: For at least one compound, name, drawing or mass did not settle the structure. Some of these results come from one statement about several compounds together.

How the values were obtained:
Format in all cases: cell-based
[1] = test system: NMD; assay: NMD luciferase reporter assay with vectors containing NMD signals associated with β039-thalassemia; details: 15 μM CPX; 125 μM DEF; 200 μM HYD; G418 at 800 μM
Procedure: The experiment of FIG. 5 used RNA silencing with small interfering RNAs (siRNAs) to deplete eIF5A itself, or either of the modifying enzymes required for hypusine formation. […] Data are shown as ratio of luciferase activities.
These experiments were carried out in the well-authenticated assay system using vectors containing NMD signals associated with β^039-thalassemia (Woeller C F, Gaspari M, Isken O, Maquat L.: EMBO Rep. 2008 May; 9(5):446-51).

[2] = target: T1, eIF5A:DOHH complex (Homo sapiens, UniProt Q9BU89); assay: Co-immunoprecipitation of the eIF5A:DOHH complex from transfected 293T cells; details: GC7 10 μM, CPX 30 μM, P2 30 μM, DEF 250 μM, DFOX 10 μM; 24 hours post-transfection
T1 construct: Endogenous DOHH co-immunoprecipitated with FLAG-eIF5A; expressed in transfected cells; host or cells: 293T cells (FLAG-eIF5A transfected; DOHH endogenous)
T1 sequence (Q9BU89 1-302): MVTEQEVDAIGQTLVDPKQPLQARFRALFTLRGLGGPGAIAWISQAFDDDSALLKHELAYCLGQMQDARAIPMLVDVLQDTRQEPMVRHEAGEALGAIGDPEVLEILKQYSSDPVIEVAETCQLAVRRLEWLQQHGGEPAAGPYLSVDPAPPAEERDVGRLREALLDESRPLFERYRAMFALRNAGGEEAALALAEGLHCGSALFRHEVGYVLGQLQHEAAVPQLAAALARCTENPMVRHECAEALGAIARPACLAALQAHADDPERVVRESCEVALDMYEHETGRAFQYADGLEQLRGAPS
Procedure: Unmodified eIF5A (lysine-50) immunoprecipitates with DHS, and deoxyhypusyl-eIF5A interacts with DOHH in vitro. The deoxyhypusyl-eIF5A:DOHH complex formed in vivo can be detected by immunoprecipitation from cell extracts. Taking advantage of this finding, the effects of the compounds on the enzyme-substrate interaction was tested, the results of which are illustrated in FIG. 2D. FLAG-eIF5A was expressed in 293T cells. 293T cells transfected with FLAG-eIF5A were untreated (-) or treated with GC7 (10 μM) or CPX (30 μM), P2 (30 μM), DEF (250 μM), or DFOX (10 μM). WCE prepared at 24 hours post-transfection was immunoprecipitated with anti-FLAG antibody. Complexes that immunoprecipitated with anti-FLAG antibody were immunoblotted and probed with antibodies against DOHH. […] As a further control, the DHS inhibitor GC7 was included in this assay. […] As expected, none of the compounds affected the immunoprecipitation of FLAG-eIF5A (FIG. 2D, middle panel; note that the band marked with an asterisk (*) is background due to IgG light chain) or the expression of endogenous eIF5A (FIG. 2D, bottom panel).
FIG. 2E illustrates 293T cells transfected with FLAG-DHS, FLAG-DOHH or empty vector (control) were treated with GC7, CPX, or DEF, or no drug (-) at the same concentration as in FIG. 2D. Immunoprecipitates obtained with anti-FLAG antibody were immunoblotted and probed with anti-eIF5A antibody (BD). […]

[3] = target: T2, DOHH (Homo sapiens, UniProt Q9BU89); assay: Immunoblot of eIF5A modification (maturation) in 293T cells transfected with FLAG-tagged eIF5A; details: 24 hours post-transfection, control compounds
T2 construct: endogenous in cells; host or cells: 293T cells
T2 sequence (Q9BU89 1-302): T1 sequence (Q9BU89 1-302)
Description: To examine the effect of compounds on the synthesis of modified eIF5A, 293T cells transfected with a FLAG-tagged eIF5A expression vector were simultaneously treated with ciclopirox (“CPX”) or deferiprone (“DEF”).
FLAG-eIF5A was monitored using NIH-353 and anti-FLAG antibodies (FIGS. 2A and 2B). FIG. 2A illustrates inhibition of eIF5A modification in 293T cells. Cells transfected with FLAG-tagged eIF5A were untreated or treated with increasing concentrations of CPX as indicated, or with agent P2. FIG. 2B illustrates cells transfected with FLAG-tagged eIF5A that were untreated or treated with increasing concentrations of DEF as indicated, or with DFOX. At 24 hours post-transfection, whole cell extract (“WCE”) was analyzed by immunoblotting with the NIH-353 anti-eIF5A antibody (upper panel) and anti-actin antibody (lower panel). The […] antibody reacts preferentially with post-translationally modified eIF5A. CPX reduced the appearance of mature eIF5A over the 3-30 μM concentration range, while DEF was effective at 200-400 μM. […]
FIG. 2C illustrates cells transfected with FLAG-tagged eIF5A that were treated with CPX (30 μM), P2 (30 μM), DEF (250 μM), DFOX (10 μM), or no compound (-). At 24 hours post transfection, WCE was analyzed by immunoblotting with the NIH-353 anti-eIF5A antibody (upper panel) and anti-FLAG antibody (lower panel). […]

Row | Structure (SMILES) | effect of combination with G418 relative to monotherapy with a nonsense suppressor (factor) [1] | association of endogenous DOHH with FLAG-eIF5A (co-immunoprecipitation) [2] | effect on the appearance of mature FLAG-eIF5A [3]
1 | Cc1cc(C2CCCCC2)n(O)c(=O)c1 [CPX, ciclopirox] | ≥ 2 |  | 
2 | Cc1c(O)c(=O)ccn1C [DEF, deferiprone] | ≥ 2 |  | 
3 | CC(=O)N(O)CCCCCNC(=O)CCC(=O)N(O)CCCCCNC(=O)CCC(=O)N(O)CCCCCN [DFOX, deferoxamine] |  | neither P2 or DFOX prevented; also recorded: Neither DFOX nor P2 had any effect | little or no effect
